Results on 1 sequence are retold here after article PMC5996148.

Some test systems named below: SMUG1 (human); SOD1 (human); SP100 (human); SPAG16 (human); SPAG8 (human); SPAG9 (human).
Test in all cases: protein microarray (ProtoArray v5.0), streptavidin-Alexa Fluor 647
Holding throughout (conditions): 3'-biotin; 20 mM Tris (pH 7.5), 5 mM MgCl2, 100 mM KCl, 0.1% Tween-20, A/T-rich and random oligonucleotide blockers; temperature not stated; high values mean tight binding

In the next assay the target is T1, SNAPC5 (UniProt O75971).
T1 sequence: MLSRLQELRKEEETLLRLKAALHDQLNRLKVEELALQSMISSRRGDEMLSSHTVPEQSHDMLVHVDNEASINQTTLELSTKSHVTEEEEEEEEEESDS

The next assay concerns the target SNCB (UniProt Q16143).
A further assay addresses T2, SNFT (UniProt Q9NR55).
T2 sequence: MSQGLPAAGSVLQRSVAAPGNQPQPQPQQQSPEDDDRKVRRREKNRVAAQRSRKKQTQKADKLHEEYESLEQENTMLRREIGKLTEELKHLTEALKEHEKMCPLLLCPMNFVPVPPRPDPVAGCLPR

For the next assay, the target named is SNRPB (UniProt P14678).

The other results are listed elsewhere or left out. For some of these results: The source does not settle which construct or isoform was used.

As to “GGTGACAGGGGTATGGGGAGGGG [G4-2 biotinylated (Ct1)]”, the binding signal in the assay with SMUG1 (human) is -0.36 z-score; with SNAPC5, -0.373 z-score; with SNCB, -0.403 z-score; with SNFT, 6 z-score; in the assay with SNRPB it was 3.14 z-score; in the assay on SOD1 (human), -0.378 z-score. For the same sequence, the binding signal with SP100 (human) is -0.377 z-score; in the assay on SPAG16 (human) it was -0.382 z-score; with SPAG8 (human), -0.368 z-score; with SPAG9 (human) it was -0.371 z-score.
